These results are taken from paper PMC10234107.

Amino acid sequences for entries named in this document (tags omitted). Residues count along the entry.
UniProt P51668: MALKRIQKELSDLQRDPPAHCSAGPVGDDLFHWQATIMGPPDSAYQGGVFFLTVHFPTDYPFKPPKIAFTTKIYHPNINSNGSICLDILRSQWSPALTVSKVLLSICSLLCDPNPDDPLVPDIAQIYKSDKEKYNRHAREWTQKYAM
UniProt P35968, residues 20-1356: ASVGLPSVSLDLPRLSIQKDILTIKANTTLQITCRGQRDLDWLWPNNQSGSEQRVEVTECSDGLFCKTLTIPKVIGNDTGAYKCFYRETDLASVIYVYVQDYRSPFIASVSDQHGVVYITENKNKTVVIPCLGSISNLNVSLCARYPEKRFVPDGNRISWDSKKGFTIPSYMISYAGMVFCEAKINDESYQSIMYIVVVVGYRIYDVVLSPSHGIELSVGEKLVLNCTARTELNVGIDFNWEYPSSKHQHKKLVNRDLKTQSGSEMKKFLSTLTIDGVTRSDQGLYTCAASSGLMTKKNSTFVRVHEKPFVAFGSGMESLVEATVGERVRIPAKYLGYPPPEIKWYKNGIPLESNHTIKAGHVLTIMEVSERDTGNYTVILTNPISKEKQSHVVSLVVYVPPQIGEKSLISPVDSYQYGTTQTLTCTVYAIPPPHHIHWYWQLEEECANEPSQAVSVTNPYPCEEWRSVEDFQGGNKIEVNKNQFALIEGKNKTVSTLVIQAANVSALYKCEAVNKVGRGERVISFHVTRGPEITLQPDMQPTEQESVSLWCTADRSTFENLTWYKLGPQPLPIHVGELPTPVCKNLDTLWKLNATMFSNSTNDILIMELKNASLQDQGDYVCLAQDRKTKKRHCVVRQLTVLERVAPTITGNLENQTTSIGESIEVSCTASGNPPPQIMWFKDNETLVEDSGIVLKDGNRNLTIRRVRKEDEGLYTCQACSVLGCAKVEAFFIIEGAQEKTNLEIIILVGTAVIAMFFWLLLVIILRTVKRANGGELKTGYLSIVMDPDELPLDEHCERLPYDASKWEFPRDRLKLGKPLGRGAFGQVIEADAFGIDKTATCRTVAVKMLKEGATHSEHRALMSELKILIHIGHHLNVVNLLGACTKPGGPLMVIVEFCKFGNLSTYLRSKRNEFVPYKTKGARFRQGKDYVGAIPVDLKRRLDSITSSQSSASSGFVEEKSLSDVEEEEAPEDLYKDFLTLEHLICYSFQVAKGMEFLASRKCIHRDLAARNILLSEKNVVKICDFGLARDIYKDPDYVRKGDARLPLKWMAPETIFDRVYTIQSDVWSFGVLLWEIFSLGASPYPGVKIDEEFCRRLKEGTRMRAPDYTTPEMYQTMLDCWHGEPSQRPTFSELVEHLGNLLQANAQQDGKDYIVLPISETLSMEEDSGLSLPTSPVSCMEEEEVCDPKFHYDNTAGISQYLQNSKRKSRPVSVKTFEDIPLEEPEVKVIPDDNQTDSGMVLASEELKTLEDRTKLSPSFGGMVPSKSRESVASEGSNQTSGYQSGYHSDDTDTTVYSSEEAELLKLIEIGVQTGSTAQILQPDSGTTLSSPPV

The target of this test is UBE2D1 (human (endogenous in HUVEC)) (UniProt P51668). In words: co-IP; HUVECs with and without VEGF-A; flash crosslinking with 0.4% paraformaldehyde for 1 min; lysis in RIPA buffer plus EDTA; lysate incubated overnight at 4°C with rabbit anti-UBE2D1 or anti-UBE2D2; protein G agarose beads; washed with 0.1x RIPA plus EDTA; immunoblot for VEGFR2 and TfR.

Results are given in words; binding and its absence hold for the method and conditions named. Binding seen in cells or lysates may run through a third protein. Some results given as binding are weak or reduced against the parent protein; the word gives no strength.

For “Vascular endothelial growth factor receptor 2 (from UniProt P35968 20-1356)”, the binding entry is on record as “binds”.
